From PMC7890835 come the findings set out here.

No constants are given. Whether binding was seen depends on the method and setting. Binding seen in cells or lysates may run through a third protein. Some entries that bind do so weakly or less than the wild type. For part of these data: Sequences can lack the tags named with a protein.

Experiment [1] addresses T1, RNF152 (endogenous) (human (endogenous in HuH6)) (UniProt Q8N8N0).
T1 sequence: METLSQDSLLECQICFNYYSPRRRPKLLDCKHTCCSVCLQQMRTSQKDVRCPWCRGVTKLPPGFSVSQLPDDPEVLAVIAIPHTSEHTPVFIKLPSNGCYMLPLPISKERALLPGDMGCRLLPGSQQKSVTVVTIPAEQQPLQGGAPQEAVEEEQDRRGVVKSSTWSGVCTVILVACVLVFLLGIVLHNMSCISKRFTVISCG
Kind of experiment: co-IP; lysates of MG132-treated HuH6 cells, immunoprecipitated with IgG or anti-RNF152 antibody, immunoblot; endogenous proteins.

For experiment [2], the target named is T2, Flag-RNF152 (human (cDNA from 293 T or HepG2 cells)) (UniProt Q8N8N0).
T2 sequence: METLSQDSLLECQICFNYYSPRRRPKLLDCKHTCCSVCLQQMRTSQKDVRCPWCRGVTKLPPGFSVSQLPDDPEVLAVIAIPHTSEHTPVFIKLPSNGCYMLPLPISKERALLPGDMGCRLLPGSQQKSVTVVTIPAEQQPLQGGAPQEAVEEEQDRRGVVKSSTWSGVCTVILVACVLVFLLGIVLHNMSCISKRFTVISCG
Kind of experiment: co-IP; lysates of 293 T cells transfected with Flag-RNF152 for 36 h, immunoprecipitated with Flag M2 beads, immunoblot with anti-Flag or anti-TSPAN12; IP buffer 100 mM NaCl, 20 mM Tris-Cl pH 8.0, 0.5 mM EDTA, 0.5% NP-40. For orientation: In western blotting, separated proteins are transferred to a membrane and probed.

Experiment [3] deals with T3, GST-RNF152 (human (cDNA from 293 T or HepG2 cells)) (UniProt Q8N8N0).
T3 sequence: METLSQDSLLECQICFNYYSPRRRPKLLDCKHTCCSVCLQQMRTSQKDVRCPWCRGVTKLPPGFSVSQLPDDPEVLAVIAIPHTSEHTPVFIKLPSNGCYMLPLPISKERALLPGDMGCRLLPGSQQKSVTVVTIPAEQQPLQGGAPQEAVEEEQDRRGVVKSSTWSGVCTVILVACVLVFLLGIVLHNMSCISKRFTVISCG
Kind of experiment: pull-down; lysate of 293 T cells transfected with Flag-tagged TSPAN12 incubated with GST alone or GST-RNF152 immobilized on GST-Sepharose beads; bound proteins detected by immunoblot; only the target purified.

B1: TSPAN12 (endogenous) (protein, UniProt O95859 1-305)
chain: MAREDSVKCLRCLLYALNLLFWLMSISVLAVSAWMRDYLNNVLTLTAETRVEEAVILTYFPVVHPVMIAVCCFLIIVGMLGYCGTVKRNLLLLAWYFGSLLVIFCVELACGVWTYEQELMVPVQWSDMVTLKARMTNYGLPRYRWLTHAWNFFQREFKCCGVVYFTDWLEMTEMDWPPDSCCVREFPGCSKQAHQEDLSDLYQEGCGKKMYSFLRGTKQLQVLRFLGISIGVTQILAMILTITLLWALYYDRREPGTDQMMSLKNDNSQHLSCPSVELLKPSLSRIFEHTSMANSFNTHFEMEEL
As for B1, the binding result in experiment [1] and in experiment [2] was “binds” each time.

B2: Flag-tagged TSPAN12 (protein, UniProt O95859 1-305)
chain: MAREDSVKCLRCLLYALNLLFWLMSISVLAVSAWMRDYLNNVLTLTAETRVEEAVILTYFPVVHPVMIAVCCFLIIVGMLGYCGTVKRNLLLLAWYFGSLLVIFCVELACGVWTYEQELMVPVQWSDMVTLKARMTNYGLPRYRWLTHAWNFFQREFKCCGVVYFTDWLEMTEMDWPPDSCCVREFPGCSKQAHQEDLSDLYQEGCGKKMYSFLRGTKQLQVLRFLGISIGVTQILAMILTITLLWALYYDRREPGTDQMMSLKNDNSQHLSCPSVELLKPSLSRIFEHTSMANSFNTHFEMEEL
Regarding B2, the binding entry in experiment [3] is “binds”.
